Some of these results come from one statement about several compounds together.
How the values were obtained:
[1] = biological target: T1, human CYP11B2 (Homo sapiens, UniProt P19099); test: V79-Human-CYP11B2 cell assay (aldosterone formation, HTRF); format: cell-based; conditions: V79 cells stably expressing human CYP11B2; substrate 125 nM 11-deoxycorticosterone; 3 hours
T1 construct: expressed in transfected cells; host or cells: V79 cells (clone V79-hCYP11B2-CLE9)
T1 sequence (P19099 25-503): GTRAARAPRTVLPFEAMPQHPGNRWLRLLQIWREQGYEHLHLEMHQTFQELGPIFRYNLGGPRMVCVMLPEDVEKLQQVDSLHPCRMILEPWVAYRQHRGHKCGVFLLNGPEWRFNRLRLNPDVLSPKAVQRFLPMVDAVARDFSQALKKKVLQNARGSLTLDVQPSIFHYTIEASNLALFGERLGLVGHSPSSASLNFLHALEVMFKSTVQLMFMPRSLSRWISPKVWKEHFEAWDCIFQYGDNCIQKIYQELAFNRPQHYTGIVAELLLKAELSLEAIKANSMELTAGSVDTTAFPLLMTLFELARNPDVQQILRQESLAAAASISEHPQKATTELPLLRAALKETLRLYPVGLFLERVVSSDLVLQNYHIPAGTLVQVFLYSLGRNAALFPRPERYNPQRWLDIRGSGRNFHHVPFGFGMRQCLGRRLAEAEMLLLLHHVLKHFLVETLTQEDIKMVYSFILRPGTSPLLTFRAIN
Description: (§1) Methods for V79-Human-CYP11B2 and V79-Human-CYP11B1 Assays: V79 cell lines stably expressing the either the human CYP11B2 or the human CYP11B1 enzyme were generated using a standard transfection protocol. V79 cells were transfected with plasmids pTriEx3-Hygro-hCyp11B2 or pTriEx3-Hygro-hCyp11B1 using Lipofectamine2000 reagent. V79 cells that stably express the human CYP11B2 or human CYP11B1 enzyme were selected for and maintained in DMEM supplemented with 10% FBS and 400 μg/mL hygromycin for ˜2 weeks. Single cell clones were generated by […] in DMEM supplemented with 10% FBS and 400 μg/mL hygromycin until single colonies were obtained. Clones V79-hCYP11B2-CLE9 and V79-hCYP11B1-8C7, were determined to produce the most aldosterone and cortisol, respectively, and were selected for inhibitor screening. For testing of inhibitors, cells were harvested at 80% confluency with 0.5% Trypsan-EDTA, washed once in PBS, and reconstituted in DMEM 0.1% BSA media at a cell concentration of 400,000 cells/mL. 25 μl of cells were added to a 384 well tissue culture treated plate and mixed with 0.25 μl of inhibitor or DMSO (1% final DMSO concentration) for 1 hour at 37° C., 5% CO2. After pre-incubation with inhibitor, the reaction was initiated by adding 5 μl of substrate (final concentration of 125 nM 11-deoxycorticosterone for the CYP11B2 assay or 250 nM 11-deoxycortisol for the CYP11B1 assay). The reaction was carried out for 3 hours at 37° C., 5% CO2 and was stopped by harvesting the supernatants. The amount of product in the supernatant (aldosterone for CYP11B2 assay and cortisol for the CYP11B1 assay) was measured using HTRF-based assay kit (Aldosterone HTRF-CisBio#64ALDPEB, Cortisol HTRF-CisBio #63IDC002-CORT). IC50's for the inhibitor were determined by plotting the amount of product formed against the concentration of inhibitor using sigmoidal dose-response curve (variable slope) fit in GraphPad.

[2] = biological target: T2, human CYP11B1 (Homo sapiens, UniProt P15538); test: V79-Human-CYP11B1 cell assay (cortisol formation, HTRF); format: cell-based
T2 construct: expressed in transfected cells; host or cells: V79 cells (clone V79-hCYP11B1-8C7)
T2 sequence (P15538 25-503): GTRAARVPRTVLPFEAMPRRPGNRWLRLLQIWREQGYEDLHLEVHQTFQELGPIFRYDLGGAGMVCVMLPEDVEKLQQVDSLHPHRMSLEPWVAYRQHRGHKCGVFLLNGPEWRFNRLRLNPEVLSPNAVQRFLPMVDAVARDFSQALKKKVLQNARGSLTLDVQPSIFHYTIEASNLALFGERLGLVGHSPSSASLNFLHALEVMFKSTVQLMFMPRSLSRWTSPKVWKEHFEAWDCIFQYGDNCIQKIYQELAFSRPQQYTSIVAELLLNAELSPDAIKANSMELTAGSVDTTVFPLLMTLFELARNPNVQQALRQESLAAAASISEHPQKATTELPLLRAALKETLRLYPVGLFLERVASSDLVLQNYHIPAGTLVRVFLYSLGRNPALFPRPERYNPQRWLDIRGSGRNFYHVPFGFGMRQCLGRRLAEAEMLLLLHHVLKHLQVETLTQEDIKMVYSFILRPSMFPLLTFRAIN
Description: as §1, with “Clones V79-hCYP11B2-CLE9 and V79-hCYP11B1-8C7, were determined to produce the most aldosterone and cortisol, respectively, and were selected for inhibitor screening.” left out, “After pre-incubation with inhibitor, the reaction was initiated by adding 5 μl of substrate (final concentration of 125 nM 11-deoxycorticosterone for the CYP11B2 assay or 250 nM 11-deoxycortisol for the CYP11B1 assay).” left out

Structure (SMILES)	IC50 [1] [nM]	fold greater inhibition of CYP11B2 as compared to CYP11B1 (selectivity) [2]
CC(C)(O)c1cncc(-c2nc3cc(F)ccc3n2C2CC2)c1 [Example 46, 2-[5-(1-cyclopropyl-5-fluoro-1H-benzimidazol-2-yl)pyridin-3-yl]propan-2-ol]	< 1000	at least 3 fold
Cn1c(-c2cccnc2)nc2ccc(F)cc21 [Example 2, 6-fluoro-1-methyl-2-(pyridin-3-yl)-1H-benzimidazole]	< 1000	at least 3 fold
COC(=O)c1cncc(-c2nc3ccc(F)cc3n2C)c1 [Example 43, methyl 5-(6-fluoro-1-methyl-1H-benzimidazol-2-yl)pyridine-3-carboxylate]	< 1000	at least 3 fold
Fc1ccc2nc(-c3cncc4ccccc34)n(C3CC3)c2c1 [Example 16, 4-(1-cyclopropyl-6-fluoro-1H-benzimidazol-2-yl)isoquinoline]	< 1000	at least 3 fold
CCn1c(-c2cccnc2)nc2ccc(F)cc21 [Example 13, 1-ethyl-6-fluoro-2-(pyridin-3-yl)-1H-benzimidazole]	< 1000	at least 3 fold
Cn1c(-c2cncc(F)c2)nc2ccc(F)cc21 [Example 11, 6-fluoro-2-(5-fluoropyridin-3-yl)-1-methyl-1H-benzimidazole]	< 1000	at least 3 fold
CCn1c(-c2cccnc2)nc2cc(F)c(F)cc21 [Example 30, 1-ethyl-5,6-difluoro-2-(pyridin-3-yl)-1H-benzimidazole]	< 1000	at least 3 fold
CC(C)(O)c1cncc(-c2nc3cc(F)cc(F)c3n2C2CC2)c1 [Example 49, 2-[5-(1-cyclopropyl-5,7-difluoro-1H-benzimidazol-2-yl)pyridin-3-yl]propan-2-ol]	< 1000	at least 3 fold
CCn1c(-c2cncc(C(C)(C)O)c2)nc2cc(F)c(F)cc21 [Example 47, 2-[5-(1-ethyl-5,6-difluoro-1H-benzimidazol-2-yl)pyridin-3-yl]propan-2-ol]	< 1000	at least 3 fold
COC(C)(C)c1cncc(-c2nc3ccc(F)cc3n2C2CC2)c1 [Example 51, 1-cyclopropyl-6-fluoro-2-[5-(2-methoxypropan-2-yl)pyridin-3-yl]-1H-benzimidazole]	< 1000	at least 3 fold
Cn1c(-c2cccnc2)nc2cc(F)ccc21 [Example 4, 5-fluoro-1-methyl-2-(pyridin-3-yl)-1H-benzimidazole]	< 1000	at least 3 fold
CC(=O)c1cncc(-c2nc3cc(F)c(F)cc3n2C2CC2)c1 [Example 48, 1-[5-(1-cyclopropyl-5,6-difluoro-1H-benzimidazol-2-yl)pyridin-3-yl]ethanone]	< 1000	at least 3 fold
Fc1cc2nc(-c3cccnc3)n(C3CC3)c2cc1F [Example 23, 1-cyclopropyl-5,6-difluoro-2-(pyridin-3-yl)-1H-benzimidazole]	< 1000	at least 3 fold
Fc1cc2nc(-c3cncc4cccnc34)n(C3CC3)c2cc1F [Example 33, 8-(1-cyclopropyl-5,6-difluoro-1H-benzimidazol-2-yl)-1,6-naphthyridine]	< 1000	at least 3 fold
Fc1cc(F)c2nc(-c3cccnc3)n(C3CC3)c2c1 [Example 24, 1-cyclopropyl-4,6-difluoro-2-(pyridin-3-yl)-1H-benzimidazole]	< 1000	at least 3 fold
Fc1cccc2nc(-c3cccnc3)n(C3CC3)c12 [Example 28, 1-cyclopropyl-7-fluoro-2-(pyridin-3-yl)-1H-benzimidazole]	< 1000	at least 3 fold
Fc1ccc2nc(-c3cccnc3)n(C3CC3)c2c1F [Example 25, 1-cyclopropyl-6,7-difluoro-2-(pyridin-3-yl)-1H-benzimidazole]	< 1000	at least 3 fold
CCn1c(-c2cccnc2)nc2cc(F)ccc21 [Example 22, 1-ethyl-5-fluoro-2-(pyridin-3-yl)-1H-benzimidazole]	< 1000	at least 3 fold
Fc1ccc2c(c1)nc(-c1cncc3ccccc13)n2C1CC1 [Example 27, 4-(1-cyclopropyl-5-fluoro-1H-benzimidazol-2-yl)isoquinoline]	< 1000	at least 3 fold
Fc1ccc2nc(-c3cncc4cccnc34)n(C3CC3)c2c1 [Example 8, 8-(1-cyclopropyl-6-fluoro-1H-benzimidazol-2-yl)-1,6-naphthyridine]	< 1000	–
Fc1ccc2c(c1)nc(-c1cccnc1)n2C1CC1 [Example 17, 1-cyclopropyl-5-fluoro-2-(pyridin-3-yl)-1H-benzimidazole]	–	at least 3 fold
CC(O)(c1cncc(-c2nc3ccc(F)cc3n2C2CC2)c1)C(F)(F)F (racemic) [Example 6, 2-[5-(1-cyclopropyl-6-fluoro-1H-benzimidazol-2-yl)pyridin-3-yl]-1,1,1-trifluoropropan-2-ol]	< 1000	–
CC(C)(O)c1cncc(-c2nc3cc(F)c(F)cc3n2C2CC2)c1 [Example 38, 2-[5-(1-Cyclopropyl-5,6-difluoro-1H-benzimidazol-2-yl)pyridin-3-yl]propan-2-ol]	–	at least 3 fold

Reference: US9382226B2, “Aldosterone synthase inhibitors” (Merck Sharp & Dohme Corp., priority 2010, dated 2016)
